# Data reported in the supplement of paper PMC8728848.
# Some of the results follow.
# B1: HA-61200 (Pseudomonas aeruginosa), Q02SP8_PSEAB (protein)
# chain: MNKCYALVWNVSQGCWNVVSEGSRRRGKPAGAKAAIASVLALLGATALAPAYALPSGGTVVGGSANGEIHLSGGNSLSVNQKVDKLIANWDSFSVAAGERVIFNQPSSSSIALNRVIGTKASDIQGRIDANGQVFLVNPNGVLFGRGAQVNVGGLVASTLDITDAEFNGNSSRYRFTGPSTNGVLNHGGAITAAEGGSIALLGAQVDNRGTVLAQMGGVGLGAGSDLTLNFDGNKLLDIRVDAGVANALASNGGLLKADGGRVLMAARTANALLNTVVNSQGAIEARSLRGKNGRIVLDG
# Tests used:
# Experiment in all cases: glycan array binding signal (z-score within array); higher = stronger binding
# Conditions in all cases: glycan notation: IUPAC condensed, linker removed
# [1] = biological target: Gal(b1-3)[Fuc(a1-4)]GlcNAc(b1-3)Gal(b1-4)[Fuc(a1-3)]GlcNAc
# In short: (§1)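 Glycan array data came from 3228 arrays in the Consortium for Functional Glycomics database, and only arrays with an available protein sequence were kept. Glycan names were put into IUPAC-condensed notation, and columns mapping to the same glycan were averaged. The binding signal is a within-array Z-score, averaged across arrays of one protein sequence run at different concentrations or buffers and across linkers. A negative Z-score can be read as non-binding.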
# [2] = biological target: Gal(b1-3)[Fuc(a1-4)]GlcNAc(b1-6)GalNAc
# In short: as §1
# [3] = biological target: Gal(b1-3)[GlcNAc(b1-6)]GalNAc
# In short: as §1
# [4] = biological target: Gal(b1-3)[Neu5Ac(a2-6)]GalNAc
# In short: as §1
# [5] = biological target: Gal(b1-3)[Neu5Ac(a2-6)]GlcNAc(b1-4)Gal(b1-4)Glc
# In short: as §1
# [6] = biological target: Gal(b1-3)[Neu5Ac(b2-6)]GalNAc
# In short: as §1
# Gal(b1-4)Gal = biological target: Gal(b1-4)Gal
# In short: as §1
# [7] = biological target: Gal(b1-4)GalNAc(a1-3)[Fuc(a1-2)]Gal(b1-4)GlcNAc
# In short: as §1
# [8] = biological target: Gal(b1-4)GalNAc(b1-3)[Fuc(a1-2)]Gal(b1-4)GlcNAc
# In short: as §1
# Gal(b1-4)Glc = biological target: Gal(b1-4)Glc
# In short: as §1
# Gal(b1-4)Glc6S = biological target: Gal(b1-4)Glc6S
# In short: as §1
# Gal(b1-4)GlcNAc = biological target: Gal(b1-4)GlcNAc
# In short: as §1
# [9] = biological target: Gal(b1-4)GlcNAc(a1-6)Gal(b1-4)GlcNAc
# In short: as §1
# Gal(b1-4)GlcNAc(b1-2)Man = biological target: Gal(b1-4)GlcNAc(b1-2)Man
# In short: as §1
# [10] = biological target: Gal(b1-4)GlcNAc(b1-2)Man(a1-3)Man(b1-4)GlcNAc(b1-4)GlcNAc
# In short: as §1
# [11] = biological target: Gal(b1-4)GlcNAc(b1-2)Man(a1-3)[Gal(b1-4)GlcNAc(b1-2)Man(a1-6)]Man(b1-4)GlcNAc(b1-4)GlcNAc
# In short: as §1
# [12] = biological target: Gal(b1-4)GlcNAc(b1-2)Man(a1-3)[Gal(b1-4)GlcNAc(b1-2)Man(a1-6)]Man(b1-4)GlcNAc(b1-4)[Fuc(a1-6)]GlcNAc
# In short: as §1
# [13] = biological target: Gal(b1-4)GlcNAc(b1-2)Man(a1-3)[Gal(b1-4)GlcNAc(b1-2)Man(a1-6)][Gal(b1-4)GlcNAc(b1-4)]Man(b1-4)GlcNAc(b1-4)[Fuc(a1-6)]GlcNAc
# In short: as §1
# [14] = biological target: Gal(b1-4)GlcNAc(b1-2)Man(a1-3)[Gal(b1-4)GlcNAc(b1-2)Man(a1-6)][GlcNAc(b1-4)]Man(b1-4)GlcNAc(b1-4)[Fuc(a1-6)]GlcNAc
# In short: as §1
# [15] = biological target: Gal(b1-4)GlcNAc(b1-2)Man(a1-3)[GlcNAc(b1-2)Man(a1-6)]Man(b1-4)GlcNAc(b1-4)GlcNAc
# In short: as §1
# [16] = biological target: Gal(b1-4)GlcNAc(b1-2)Man(a1-3)[GlcNAc(b1-4)][Gal(b1-4)GlcNAc(b1-2)Man(a1-6)]Man(b1-4)GlcNAc(b1-4)GlcNAc
# In short: as §1
# [17] = biological target: Gal(b1-4)GlcNAc(b1-2)Man(a1-3)[Man(a1-6)]Man(b1-4)GlcNAc(b1-4)GlcNAc
# In short: as §1
# [18] = biological target: Gal(b1-4)GlcNAc(b1-2)Man(a1-6)Man(b1-4)GlcNAc(b1-4)GlcNAc
# In short: as §1
# [19] = biological target: Gal(b1-4)GlcNAc(b1-2)Man(a1-6)[GlcNAc(b1-2)Man(a1-3)]Man(b1-4)GlcNAc(b1-4)GlcNAc
# In short: as §1
# [20] = biological target: Gal(b1-4)GlcNAc(b1-2)Man(a1-6)[Man(a1-3)]Man(b1-4)GlcNAc(b1-4)GlcNAc
# In short: as §1
# [21] = biological target: Gal(b1-4)GlcNAc(b1-2)[Gal(b1-4)GlcNAc(b1-4)]Man(a1-3)[Gal(b1-4)GlcNAc(b1-2)Man(a1-6)]Man(b1-4)GlcNAc(b1-4)GlcNAc
# In short: as §1
# [22] = biological target: Gal(b1-4)GlcNAc(b1-2)[Gal(b1-4)GlcNAc(b1-4)]Man(a1-3)[Gal(b1-4)GlcNAc(b1-2)[Gal(b1-4)GlcNAc(b1-6)]Man(a1-6)]Man(b1-4)GlcNAc(b1-4)GlcNAc
# In short: as §1
# [23] = biological target: Gal(b1-4)GlcNAc(b1-2)[Gal(b1-4)GlcNAc(b1-4)]Man(a1-3)[GlcNAc(b1-4)][Gal(b1-4)GlcNAc(b1-2)Man(a1-6)]Man(b1-4)GlcNAc(b1-4)GlcNAc
# In short: as §1
# [24] = biological target: Gal(b1-4)GlcNAc(b1-2)[Gal(b1-4)GlcNAc(b1-4)]Man(a1-3)[GlcNAc(b1-4)][Gal(b1-4)GlcNAc(b1-2)[Gal(b1-4)GlcNAc(b1-6)]Man(a1-6)]Man(b1-4)GlcNAc(b1-4)GlcNAc
# In short: as §1
# [25] = biological target: Gal(b1-4)GlcNAc(b1-2)[Gal(b1-4)GlcNAc(b1-6)]Man(a1-6)[Gal(b1-4)GlcNAc(b1-2)Man(a1-3)]Man(b1-4)GlcNAc(b1-4)GlcNAc
# In short: as §1
# [26] = biological target: Gal(b1-4)GlcNAc(b1-2)[Gal(b1-4)GlcNAc(b1-6)]Man(a1-6)[Gal(b1-4)GlcNAc(b1-2)Man(a1-3)]Man(b1-4)GlcNAc(b1-4)[Fuc(a1-6)]GlcNAc
# In short: as §1
# [27] = biological target: Gal(b1-4)GlcNAc(b1-2)[Gal(b1-4)GlcNAc(b1-6)]Man(a1-6)[GlcNAc(b1-4)][Gal(b1-4)GlcNAc(b1-2)Man(a1-3)]Man(b1-4)GlcNAc(b1-4)GlcNAc
# In short: as §1
# [28] = biological target: Gal(b1-4)GlcNAc(b1-2)[Gal(b1-4)GlcNAc(b1-6)]Man(a1-6)[GlcNAc(b1-4)][Gal(b1-4)GlcNAc(b1-2)[Gal(b1-4)GlcNAc(b1-4)]Man(a1-3)]Man(b1-4)GlcNAc(b1-4)[Fuc(a1-6)]GlcNAc
# In short: as §1
# [29] = biological target: Gal(b1-4)GlcNAc(b1-3)Gal(b1-3)GalNAc
# In short: as §1
# [30] = biological target: Gal(b1-4)GlcNAc(b1-3)Gal(b1-3)GlcNAc
# In short: as §1
# [31] = biological target: Gal(b1-4)GlcNAc(b1-3)Gal(b1-4)Glc
# In short: as §1
# [32] = biological target: Gal(b1-4)GlcNAc(b1-3)Gal(b1-4)GlcNAc
# In short: as §1
# [33] = biological target: Gal(b1-4)GlcNAc(b1-3)Gal(b1-4)GlcNAc(b1-2)Man(a1-3)[Gal(b1-4)GlcNAc(b1-3)Gal(b1-4)GlcNAc(b1-2)Man(a1-6)]Man(b1-4)GlcNAc(b1-4)GlcNAc
# In short: as §1
binder,measurement,setting,value
B1,glycan array binding signal (z-score),[1],-0.62
same,glycan array binding signal (z-score),[2],-0.005
same,glycan array binding signal (z-score),[3],-0.146
same,glycan array binding signal (z-score),[4],-0.393
same,glycan array binding signal (z-score),[5],-0.176
same,glycan array binding signal (z-score),[6],-1.35
same,glycan array binding signal (z-score),Gal(b1-4)Gal,-0.639
same,glycan array binding signal (z-score),[7],-0.022
same,glycan array binding signal (z-score),[8],-0.396
same,glycan array binding signal (z-score),Gal(b1-4)Glc,-0.3
same,glycan array binding signal (z-score),Gal(b1-4)Glc6S,-0.864
same,glycan array binding signal (z-score),Gal(b1-4)GlcNAc,0.232
same,glycan array binding signal (z-score),[9],-0.452
same,glycan array binding signal (z-score),Gal(b1-4)GlcNAc(b1-2)Man,0.168
same,glycan array binding signal (z-score),[10],-0.669
same,glycan array binding signal (z-score),[11],-0.964
same,glycan array binding signal (z-score),[12],0.08
same,glycan array binding signal (z-score),[13],-0.382
same,glycan array binding signal (z-score),[14],-0.721
same,glycan array binding signal (z-score),[15],-0.742
same,glycan array binding signal (z-score),[16],-0.203
same,glycan array binding signal (z-score),[17],-0.922
same,glycan array binding signal (z-score),[18],-0.572
same,glycan array binding signal (z-score),[19],0.028
same,glycan array binding signal (z-score),[20],-0.465
same,glycan array binding signal (z-score),[21],-0.262
same,glycan array binding signal (z-score),[22],-0.145
same,glycan array binding signal (z-score),[23],-0.424
same,glycan array binding signal (z-score),[24],1.45
same,glycan array binding signal (z-score),[25],1.7
same,glycan array binding signal (z-score),[26],0.538
same,glycan array binding signal (z-score),[27],0.379
same,glycan array binding signal (z-score),[28],-0.101
same,glycan array binding signal (z-score),[29],-0.391
same,glycan array binding signal (z-score),[30],0.257
same,glycan array binding signal (z-score),[31],-0.679
same,glycan array binding signal (z-score),[32],-0.105
same,glycan array binding signal (z-score),[33],0.248

# 2 entries picked at random from the list so far:
binder,measurement,setting,value
B1,glycan array binding signal (z-score),[6],-1.35
same,glycan array binding signal (z-score),Gal(b1-4)Glc,-0.3
